The results in this text go back to publication PMC10774274.

By UniProt entry, the sequences of proteins in these tests, tags left out. Where a name states a change or a piece, a line headed by the entry shows the natural chain unless it says otherwise.
UniProt P09651: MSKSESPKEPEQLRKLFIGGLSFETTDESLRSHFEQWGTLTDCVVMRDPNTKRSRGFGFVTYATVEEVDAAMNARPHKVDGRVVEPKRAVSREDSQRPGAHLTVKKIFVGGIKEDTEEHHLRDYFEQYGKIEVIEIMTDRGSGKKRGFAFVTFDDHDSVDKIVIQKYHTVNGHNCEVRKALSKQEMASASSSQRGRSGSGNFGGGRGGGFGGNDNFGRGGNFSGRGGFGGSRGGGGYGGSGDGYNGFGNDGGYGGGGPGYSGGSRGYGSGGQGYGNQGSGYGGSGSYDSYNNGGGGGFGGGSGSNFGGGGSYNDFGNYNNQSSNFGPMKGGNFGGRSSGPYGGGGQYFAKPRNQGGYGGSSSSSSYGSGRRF

The exact form of at least one protein or probe is not confirmed.

The target of the data set is MBP-hnRNP A1 WT (N-MBP-TEV-A1WT-C) (UniProt P09651). Kind of data set: EMSA. The settings on record: 500 nM RNA, 0.04-5 ug protein; 2'-O-methyl on the 3'-terminal C; Label-free RNA EMSA: 500 nM RNA, 1X binding buffer (composition not given), 30 min at room temperature; 5% native TBE gel in 0.5X TBE, 60 V; protein stock in 150 mM NaCl; recombinant protein; protein details: N-terminal MBP with TEV site; label: none (SYBR Gold stain).

In the case of “GGCUCUGGAAGAAGACAUAGAAAACCAUGCAACAGAUGUGCACCAGGCAGUC [hMACF1 RNA]”, the binding result was “binds”.
